Experimental data published in paper PMC6928942.
These are yes or no findings as the source states them, for the method shown. Binding seen in cells or lysates may run through a third protein. Binding can be weak; no strength is given.

Sequences of proteins named here, by UniProt entry; tags and fusion partners are left off.
UniProt Q12522: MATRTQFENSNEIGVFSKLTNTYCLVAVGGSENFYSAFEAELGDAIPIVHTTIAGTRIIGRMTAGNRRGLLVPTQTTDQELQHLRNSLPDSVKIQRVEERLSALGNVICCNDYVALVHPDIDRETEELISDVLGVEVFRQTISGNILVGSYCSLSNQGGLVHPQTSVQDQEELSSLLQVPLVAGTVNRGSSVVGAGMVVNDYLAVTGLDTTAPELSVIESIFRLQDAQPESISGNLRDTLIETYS
UniProt P0CX25: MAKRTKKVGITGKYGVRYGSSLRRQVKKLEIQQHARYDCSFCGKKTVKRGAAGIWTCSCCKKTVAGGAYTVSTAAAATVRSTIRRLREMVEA

Legend:
[1] = target: Tif6-TAP (S. cerevisiae) (UniProt Q12522); experiment: co-IP; Tif6-TAP immunoprecipitated from yeast; Puf6 mutants examined
[2] = target: puf6ΔDE-myc (S. cerevisiae) (UniProt Q04373); experiment: co-IP; anti-c-myc antibody (9E10) and protein-A agarose beads on yeast extract, 4 °C, IP buffer (20 mM Tris pH 7.5, 50 mM NaCl, 6 mM MgCl2, 10% glycerol); Western blotting

| binding [1] | binding [2] | Substance |
| --- | --- | --- |
| binds |  | puf6ΔDE-myc (from UniProt Q04373) |
|  | binds | Rpl43B-HA (from UniProt P0CX25 1-92) |
